Assay results from paper PMC10984625.

Chains of the proteins cited; added tags and fusions are not shown.
UniProt Q6PD03: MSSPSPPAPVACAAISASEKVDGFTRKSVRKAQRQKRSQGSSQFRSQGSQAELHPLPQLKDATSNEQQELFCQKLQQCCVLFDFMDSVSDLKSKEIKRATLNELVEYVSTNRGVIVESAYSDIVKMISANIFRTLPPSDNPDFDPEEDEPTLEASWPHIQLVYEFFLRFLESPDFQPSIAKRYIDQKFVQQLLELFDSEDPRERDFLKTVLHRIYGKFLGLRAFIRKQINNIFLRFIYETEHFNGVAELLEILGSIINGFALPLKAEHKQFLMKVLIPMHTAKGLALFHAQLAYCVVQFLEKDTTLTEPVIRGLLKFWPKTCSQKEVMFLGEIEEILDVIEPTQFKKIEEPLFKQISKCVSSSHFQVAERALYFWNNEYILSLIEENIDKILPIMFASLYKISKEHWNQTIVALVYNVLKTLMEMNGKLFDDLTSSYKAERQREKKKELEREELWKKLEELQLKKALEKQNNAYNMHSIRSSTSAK
UniProt Q61151: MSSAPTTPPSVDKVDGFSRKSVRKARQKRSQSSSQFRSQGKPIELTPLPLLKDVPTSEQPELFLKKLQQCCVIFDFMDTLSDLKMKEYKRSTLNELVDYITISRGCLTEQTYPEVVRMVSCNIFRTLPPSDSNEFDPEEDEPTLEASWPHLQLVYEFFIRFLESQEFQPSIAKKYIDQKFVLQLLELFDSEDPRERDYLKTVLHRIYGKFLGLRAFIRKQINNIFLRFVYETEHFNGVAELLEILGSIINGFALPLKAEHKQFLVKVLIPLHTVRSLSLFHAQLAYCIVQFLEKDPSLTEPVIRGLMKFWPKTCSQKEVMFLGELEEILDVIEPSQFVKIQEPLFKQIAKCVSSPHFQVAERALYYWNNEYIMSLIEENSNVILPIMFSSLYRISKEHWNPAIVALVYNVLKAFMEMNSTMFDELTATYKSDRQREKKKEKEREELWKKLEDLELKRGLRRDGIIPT

T1: reticulon 3 (RTN3) (mouse (endogenous in hippocampus of 3xTg-AD mice)) (UniProt Q9ES97)
T1 sequence: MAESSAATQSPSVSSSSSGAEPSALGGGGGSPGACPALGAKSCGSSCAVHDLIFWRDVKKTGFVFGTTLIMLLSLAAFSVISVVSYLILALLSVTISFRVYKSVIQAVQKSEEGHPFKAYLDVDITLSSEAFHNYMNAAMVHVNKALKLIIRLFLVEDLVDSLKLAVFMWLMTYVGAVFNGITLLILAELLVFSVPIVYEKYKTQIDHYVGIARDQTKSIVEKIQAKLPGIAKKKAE


Target: T1, reticulon 3 (RTN3) (mouse (endogenous in hippocampus of 3xTg-AD mice))
Assay: affinity purification with mass spectrometry; homogenates of the stratum lucidum of the CA3 region of isolated and group-housed AD mice immunoprecipitated with an antibody against RTN3; three darker Coomassie-stained bands of isolated AD mice cut out for mass spectrometry; proteins with fold change >1.5 against group-housed AD mice

binding | Molecule
binds | PPP2R5A (from UniProt Q6PD03 1-486)
binds | PPP2R5E (from UniProt Q61151 1-467)
binds | PPP2R2C (protein, UniProt Q8BG02 1-447) MGEDTDTRKINHSFLRDHSYVTEADVISTVEFNHTGELLATGDKGGRVVIFQREPESKNAPHSQGEYDVYSTFQSHEPEFDYLKSLEIEEKINKIKWLPQQNAAHSLLSTNDKTIKLWKITERDKRPEGYNLKDEEGKLKDLSTVTSLQVPVLKPMDLMVEVSPRRTFANGHTYHINSISVNSDCETYMSADDLRINLWHLAITDRSFNIVDIKPANMEDLTEVITASEFHPHHCNLFVYSSSKGSLRLCDMRAAALCDKHSKLFEEPEDPSNRSFFSEIISSVSDVKFSHSGRYMLTRDYLTVKVWDLNMEARPIETYQVHDYLRSKLCSLYESDCIFDKFECAWNGSDSVIMTGAYNNFFRMFDRNTKRDVTLEASRESSKPRAVLKPRRVCVGGKRRRDDISVDSLDFTKKILHTAWHPAENIIAIAATNNLYIFQDKVNSDMH

These are yes or no findings as the source states them, for the method shown. Binding seen in cells or lysates may run through a third protein. Here binding means that the protein was enriched with, or labelled near, the bait; the list need not be complete. Sequences can lack the tags named with a protein.
